Data on one substance can be found in patent publication US20260035475A1.

Chains of the proteins cited; added tags and fusions are not shown. Residues count along the entry.
UniProt P02787, residues 20-698: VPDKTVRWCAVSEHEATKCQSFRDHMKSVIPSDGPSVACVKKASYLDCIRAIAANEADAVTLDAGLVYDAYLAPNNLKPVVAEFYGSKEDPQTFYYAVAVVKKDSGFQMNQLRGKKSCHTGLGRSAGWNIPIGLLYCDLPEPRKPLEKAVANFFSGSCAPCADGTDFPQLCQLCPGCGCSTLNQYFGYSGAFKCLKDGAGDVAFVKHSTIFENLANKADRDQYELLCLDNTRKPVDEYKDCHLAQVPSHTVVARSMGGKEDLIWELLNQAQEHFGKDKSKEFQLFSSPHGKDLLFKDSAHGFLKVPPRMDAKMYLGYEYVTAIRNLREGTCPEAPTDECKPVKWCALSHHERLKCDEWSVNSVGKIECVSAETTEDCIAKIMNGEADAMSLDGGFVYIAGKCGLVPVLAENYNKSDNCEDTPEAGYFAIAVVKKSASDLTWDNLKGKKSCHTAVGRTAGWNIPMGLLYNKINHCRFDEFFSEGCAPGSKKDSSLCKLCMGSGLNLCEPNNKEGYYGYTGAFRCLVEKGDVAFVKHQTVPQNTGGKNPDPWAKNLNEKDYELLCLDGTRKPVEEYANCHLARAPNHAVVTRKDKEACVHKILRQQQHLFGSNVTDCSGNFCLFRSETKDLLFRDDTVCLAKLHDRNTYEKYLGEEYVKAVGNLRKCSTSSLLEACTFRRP

Results are given in words; binding and its absence hold for the method and conditions named. Some results given as binding are weak or reduced against the parent protein; the word gives no strength.

The target in this experiment is cynomolgus TfR1 (cTfR1), recombinant, construct not stated (cynomolgus). Description: BLI, transferrin on streptavidin sensors captures TfR1. A general note: BLI is a label-free optical method that tracks binding on a fibre tip over time.

As for “human holo-transferrin (from UniProt P02787 20-698) (ligand)”, the binding result was “binds”.
